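Genome-wide siRNA knockdown in TC32 Ewing sarcoma cells, comparing luciferase light from an NR0B1-promoter reporter with a CMV-promoter reporter 48 hours after transfection.
Each siRNA was applied at 20 nM.
A z-score of the log NR0B1-over-CMV signal, less the median of siRNAs with the same seed; more negative means a stronger specific loss of the NR0B1 reporter.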

This is part of the screen; most of the strongest results are not listed here.
Sequences are the guide (antisense) strand, without overhang.

* AUAGGUAGUACAUCAGUGA against RPUSD4 | seed-corrected z-score 0.2423
* UCUUUUCAGAGGAGGGCCG against POU4F2 | seed-corrected z-score 0.05057
* UCCAGGUACAAUAUCGACU against RIN3 | seed-corrected z-score -0.3016
* UUACCUGUGAUGUCCUUUC against NQO1 | seed-corrected z-score 0.4486
* UCCGUUUUGAUGGUACCUG against NELFCD | seed-corrected z-score 0.7604
* AAAAAUCGAACUCAUAUGG against AGO3 | seed-corrected z-score -0.1805
* UAUACACCAGGCUCAGUCC against METTL17 | seed-corrected z-score 0.4491
* UAUAGACAGACCAAUGUUC against SNX14 | seed-corrected z-score -1.564
* AUGCGGUCAAGAGUAGUGC against WDR13 | seed-corrected z-score -0.3365
* AAUGGAAAUGUUGUUCAUC against SCN4B | seed-corrected z-score 0.04146
* UACUCGAAAGGAUUUGCCC against ALG1L3P | seed-corrected z-score 0.8236
* UAGGGAUAAAGCAAUAGCC against LRRC61 | seed-corrected z-score -0.8319
* UGAGUAGAAGCGAAAUCCC against FCRL5 | seed-corrected z-score -0.466
* UCGGUGAACUGUGAAAGUC against KCTD3 | seed-corrected z-score 0.3258
* AUCACAUCAAAGUUCAUGG against PABPC4 | seed-corrected z-score -0.334
* UUUAGUAGAAUGGAACACG against LINC00886 | seed-corrected z-score -0.5946
* UUCAUCAAAGUCGAAAGUC against TRUB1 | seed-corrected z-score -0.7121
* UAACCUCAGAAAUGCAUGC against URGCP | seed-corrected z-score 0.9993
* UUCAUUCCCACUUUUACAG against PEPD | seed-corrected z-score -0.5912
* UAUAAAUAGUAGUAAUUCC against MPV17L | seed-corrected z-score 0.07475
* UUAUAGACCGCUUCGUUGG against SLC44A2 | seed-corrected z-score 0.4955
* AGCUCCUCUAUUAUUGUGG against UTP14C | seed-corrected z-score 0.01395
* UAUGGGUAUCUUCUCUCCU against HMGN2P31 | seed-corrected z-score 0.02582
* UGAAGGAACGGCUCGAAGG against COQ10A | seed-corrected z-score -0.5469
* UCACCUGUGAUGGGUAUGC against DYNC2LI1 | seed-corrected z-score 0.3596
* UUUCCAUAAAUCGUGCAGC against GMIP | seed-corrected z-score 1.027
* AGUCAUUCGAGUGUCCUGG against LOC649238 | seed-corrected z-score 0.2104
* UGUGGAAUCAUGCGGUUGG against RBMS3 | seed-corrected z-score -0.8317
* AAGCUAAUCAAGUCUUCGC against LOC389895 | seed-corrected z-score 0.8989
* AAAUCCACAAUGACCCUGG against SFXN4 | seed-corrected z-score 0.5559
* UCAAGGAUCACUGCAAGGC against NPC1L1 | seed-corrected z-score 0.1056
* AUCUUGAUAAUGUAUGCAC against RNF19B | seed-corrected z-score 0.1661
* UUUGGGUAACUGCUAUUGG against SMAD1 | seed-corrected z-score -0.2591
* UCUUCUCACAAGAUUCAUC against REG1B | seed-corrected z-score 0.6015
* AUCCGAUCAGUAGCUUUCC against MRPS5 | seed-corrected z-score 0.05233
* UCAGUGAUCCGGAUGCAGU against CXXC1 | seed-corrected z-score 1.162
* AAAGGAAGAAUGUCCACUG against PLPP5 | seed-corrected z-score 1.119
* UAUUUUCCUUUGAAGGAUG against TXNIP | seed-corrected z-score 2.584
* UUUAGUGUUCCCAUCAGGC against ZZZ3 | seed-corrected z-score -0.9392
* UUCACGAACAGCACUCAGC against CFAP221 | seed-corrected z-score -0.1141
* UUAAAAGCAAAGAUUCACC against FLYWCH2 | seed-corrected z-score 1.079
* UGUUGGAAGAGAAUUCUCU against GSX2 | seed-corrected z-score 0.8971
* UUCCGCAUACGCUUCUUCG against PNKP | seed-corrected z-score 0.5187
* AGACCGUUUUGUAAGGUGC against PNPLA7 | seed-corrected z-score 0.04852
* UGUUCGCUCACUCUGAUGC against OOSP1 | seed-corrected z-score 0.9631
* UUAGGAAGUAUUUAGAAGA against GJC3 | seed-corrected z-score -1.857
* UUCGAUAGCUCCUUAAUUC against LCA5 | seed-corrected z-score -1.317
* UAUAGAGGCACUUCGAGGC against DNAJB11 | seed-corrected z-score 0.02906
* UACCAGUUCAUCUAAUAUG against RAD18 | seed-corrected z-score -0.5354
* AAGGCUACAGGAGAAGGGC against ZBTB32 | seed-corrected z-score 1.029
* UGUGAACCAAUCCCGUUCC against IARS2 | seed-corrected z-score 0.6814
* AAUGAUAUUAACUGCAAGC against ODC1 | seed-corrected z-score 0.2778

The first 3 entries again:

siRNA,gene,seed-corrected z-score
AUAGGUAGUACAUCAGUGA,RPUSD4,0.2423
UCUUUUCAGAGGAGGGCCG,POU4F2,0.05057
UCCAGGUACAAUAUCGACU,RIN3,-0.3016

Data taken from PubChem BioAssay AID1159506, deposited by NCATS (2015).